Measured values published in article PMC6031384.

Target: VPS26 (human (endogenous in HeLa))
Assay: affinity purification with mass spectrometry; SILAC; three HeLa cell lines, TBC1D5 knockdown in the light-labelled cells; cells treated with the crosslinker DSP (0.5 mM, 20 min, room temperature); lysis in Tris-buffered saline with 0.5% Triton X-100; VPS26 recovered by IP; LC-MSMS

binding: binds
B1: KIAA1033 (protein, UniProt Q2M389 1-1173)
chain: MAVETLSPDWEFDRVDDGSQKIHAEVQLKNYGKFLEEYTSQLRRIEDALDDSIGDVWDFNLDPIALKLLPYEQSSLLELIKTENKVLNKVITVYAALCCEIKKLKYEAETKFYNGLLFYGEGATDASMVEGDCQIQMGRFISFLQELSCFVTRCYEVVMNVVHQLAALYISNKIAPKIIETTGVHFQTMYEHLGELLTVLLTLDEIIDNHITLKDHWTMYKRLLKSVHHNPSKFGIQEEKLKPFEKFLLKLEGQLLDGMIFQACIEQQFDSLNGGVSVSKNSTFAEEFAHSIRSIFANVEAKLGEPSEIDQRDKYVGICGLFVLHFQIFRTIDKKFYKSLLDICKKVPAITLTANIIWFPDNFLIQKIPAAAKLLDRKSLQAIKIHRDTFLQQKAQSLTKDVQSYYVFVSSWMMKMESILSKEQRMDKFAEDLTNRCNVFIQGFLYAYSISTIIKTTMNLYMSMQKPMTKTSVKALCRLVELLKAIEHMFYRRSMVVADSVSHITQHLQHQALHSISVAKKRVISDKKYSEQRLDVLSALVLAENTLNGPSTKQRRLIVSLALSVGTQMKTFKDEELFPLQVVMKKLDLISELRERVQTQCDCCFLYWHRAVFPIYLDDVYENAVDAARLHYMFSALRDCVPAMMHARHLESYEILLDCYDKEIMEILNEHLLDKLCKEIEKDLRLSVHTHLKLDDRNPFKVGMKDLALFFSLNPIRFFNRFIDIRAYVTHYLDKTFYNLTTVALHDWATYSEMRNLATQRYGLVMTEAHLPSQTLEQGLDVLEIMRNIHIFVSRYLYNLNNQIFIERTSNNKHLNTINIRHIANSIRTHGTGIMNTTVNFTYQFLKKKFYIFSQFMYDEHIKSRLIKDIRFFREIKDQNDHKYPFDRAEKFNRGIRKLGVTPEGQSYLDQFRQLISQIGNAMGYVRMIRSGGLHCSSNAIRFVPDLEDIVNFEELVKEEGLAEETLKAARHLDSVLSDHTRNSAEGTEYFKMLVDVFAPEFRRPKNIHLRNFYIIVPPLTLNFVEHSISCKEKLNKKNKIGAAFTDDGFAMGVAYILKLLDQYREFDSLHWFQSVREKYLKEIRAVAKQQNVQSASQDEKLLQTMNLTQKRLDVYLQEFELLYFSLSSARIFFRADKTAAEENQEKKEKEEETKTSNGDLSDSTVSADPVVK

These are yes or no findings as the source states them, for the method shown. Binding seen in cells or lysates may run through a third protein. These calls come from enrichment with a bait or labelling near it, and not all partners need be listed.
